PubChem BioAssay AID1224830 – NIAID | 2016
The whole screen tested about 18,000 reagents; shown is a random part of them. About 2,900 of all reagents (16%) were called active. 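Calls are made per well; low scores hint the gene aids the LPS response, high scores that it dampens it.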 A number with no mark means an inactive call. Reagents against one gene are numbered here. Repeated entries: four replicate wells of each siRNA pool.

- Test: 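Host factors that control LPS-induced TNF expression in human macrophages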 (primary screen)
- Cells: human THP-1 monocytic leukaemia cells, TNF dual-luciferase reporter clone, PMA-differentiated to macrophage-like cells
- Reagent: siRNA pool against human genes, 50 nM
- Duration: LPS for 4 h, given about 3 days after siRNA transfection
- Conditions: bacterial LPS (TLR4 ligand), 10 ng/ml
- Detection: 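Ratio of firefly to renilla light, scaled to the plate median and expressed as a robust z-score per replicate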
- Reading the numbers: TNF reporter robust z-score: higher = stronger TNF reporter response to LPS
- Active means: 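Each well counts as active if its z-score is over 2.8 or under -1.5; controls are left without a call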

{"gene":"LCN1","reagent":1,"TNF reporter robust z-score":1.57}
{"gene":"LCN1","reagent":1,"TNF reporter robust z-score":"6.4 (active)"}
{"gene":"LCN1","reagent":1,"TNF reporter robust z-score":1.27}
{"gene":"LCN1","reagent":1,"TNF reporter robust z-score":1.14}
{"gene":"LCOR","reagent":1,"TNF reporter robust z-score":1.28}
{"gene":"LCOR","reagent":1,"TNF reporter robust z-score":0.89}
{"gene":"LCOR","reagent":1,"TNF reporter robust z-score":1.5}
{"gene":"LCOR","reagent":1,"TNF reporter robust z-score":"2.84 (active)"}
{"gene":"LCOR","reagent":2,"TNF reporter robust z-score":"-1.53 (active)"}
{"gene":"LCOR","reagent":2,"TNF reporter robust z-score":-1.06}
{"gene":"LCOR","reagent":2,"TNF reporter robust z-score":-0.8}
{"gene":"LCOR","reagent":2,"TNF reporter robust z-score":-0.39}
{"gene":"RCOR3","reagent":1,"TNF reporter robust z-score":"3.12 (active)"}
{"gene":"RCOR3","reagent":1,"TNF reporter robust z-score":-0.35}
{"gene":"RCOR3","reagent":1,"TNF reporter robust z-score":-0.36}
{"gene":"RCOR3","reagent":1,"TNF reporter robust z-score":0.05}
{"gene":"GOLGA7","reagent":1,"TNF reporter robust z-score":0.71}
{"gene":"GOLGA7","reagent":1,"TNF reporter robust z-score":1.06}
{"gene":"GOLGA7","reagent":1,"TNF reporter robust z-score":0.91}
{"gene":"GOLGA7","reagent":1,"TNF reporter robust z-score":1.38}
{"gene":"UBE2M","reagent":1,"TNF reporter robust z-score":0.19}
{"gene":"UBE2M","reagent":1,"TNF reporter robust z-score":-0.81}
{"gene":"UBE2M","reagent":1,"TNF reporter robust z-score":0.81}
{"gene":"UBE2M","reagent":1,"TNF reporter robust z-score":-0.06}
{"gene":"MAL2","reagent":1,"TNF reporter robust z-score":0.58}
{"gene":"MAL2","reagent":1,"TNF reporter robust z-score":-0.12}
{"gene":"MAL2","reagent":1,"TNF reporter robust z-score":-0.11}
{"gene":"MAL2","reagent":1,"TNF reporter robust z-score":0.52}
{"gene":"AKAP9","reagent":1,"TNF reporter robust z-score":-0.39}
{"gene":"AKAP9","reagent":1,"TNF reporter robust z-score":-0.45}
{"gene":"AKAP9","reagent":1,"TNF reporter robust z-score":-0.65}
{"gene":"AKAP9","reagent":1,"TNF reporter robust z-score":-0.27}

Reprinted from above for reference:
{"gene":"LCOR","reagent":1,"TNF reporter robust z-score":"2.84 (active)"}
{"gene":"LCOR","reagent":2,"TNF reporter robust z-score":"-1.53 (active)"}
{"gene":"LCOR","reagent":2,"TNF reporter robust z-score":-1.06}
{"gene":"LCOR","reagent":2,"TNF reporter robust z-score":-0.8}
